# Data as given in the supplement of paper PMC10032668.
# The other results are listed elsewhere or left out. The list holds hits alone, and they repeat only in part.
# Tests used:
# Assay in all cases: PRISMA enrichment of interactor (LFQ) in peptide spot vs all other peptide spots (log2 fold change); higher = stronger / more specific binding of the interactor to the peptide
# AHCTF1, Q8WYP5 = target: AHCTF1, Q8WYP5
# Procedure: (§1)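 PRISMA: 15-aa overlapping tiles (offset 8 aa) of 60 microproteins, plus SOS1/GLUT1 control peptides, were spot-synthesized on cellulose membranes in triplicate. Membranes were incubated with benzonase-treated HEK293T lysate, and bound proteins were identified by LC-MS/MS with LFQ. Enrichment is the log2 fold change of each protein in one spot versus all other spots. Only interactors passing the significance cutoff are listed.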
# AK2, P54819 = target: AK2, P54819
# Procedure: as §1
# COPS4, Q9BT78 = target: COPS4, Q9BT78
# Procedure: as §1
# CPNE3, O75131 = target: CPNE3, O75131
# Procedure: as §1
# DCAF13, Q9NV06 = target: DCAF13, Q9NV06
# Procedure: as §1
# DERPC, P0CG12 = target: DERPC, P0CG12
# Procedure: as §1
# EIF3D, O15371 = target: EIF3D, O15371
# Procedure: as §1
# MT-ATP6, P00846 = target: MT-ATP6, P00846
# Procedure: as §1
# NUP54, Q7Z3B4 = target: NUP54, Q7Z3B4
# Procedure: as §1
# POP1, Q99575 = target: POP1, Q99575
# Procedure: as §1
# PSRC1, Q6PGN9 = target: PSRC1, Q6PGN9
# Procedure: as §1
# PTPN1, P18031 = target: PTPN1, P18031
# Procedure: as §1
# SETD7, Q8WTS6 = target: SETD7, Q8WTS6
# Procedure: as §1
# TUBB2A, Q13885 = target: TUBB2A, Q13885
# Procedure: as §1
# ANP32B, Q92688 = target: ANP32B, Q92688
# Procedure: as §1
# C1QBP, Q07021 = target: C1QBP, Q07021
# Procedure: as §1
# CDCA7L, Q96GN5 = target: CDCA7L, Q96GN5
# Procedure: as §1
# FABP5, Q01469 = target: FABP5, Q01469
# Procedure: as §1
# GART, P22102 = target: GART, P22102
# Procedure: as §1
# GPS1, Q13098 = target: GPS1, Q13098
# Procedure: as §1
# NUDC, Q9Y266 = target: NUDC, Q9Y266
# Procedure: as §1
# PCYT1A, P49585 = target: PCYT1A, P49585
# Procedure: as §1
# RBM15, Q96T37 = target: RBM15, Q96T37
# Procedure: as §1
# RBM22, Q9NW64 = target: RBM22, Q9NW64
# Procedure: as §1
# RNF213, Q63HN8 = target: RNF213, Q63HN8
# Procedure: as §1
# RPLP1, P05386 = target: RPLP1, P05386
# Procedure: as §1
# SET, Q01105 = target: SET, Q01105
# Procedure: as §1
# SLC35B2, Q8TB61 = target: SLC35B2, Q8TB61
# Procedure: as §1
# ATG3, Q9NT62 = target: ATG3, Q9NT62
# Procedure: as §1
# CDC37, Q16543 = target: CDC37, Q16543
# Procedure: as §1
# FAM3C, Q92520 = target: FAM3C, Q92520
# Procedure: as §1
# FOXK1, P85037 = target: FOXK1, P85037
# Procedure: as §1
# MPG, P29372 = target: MPG, P29372
# Procedure: as §1
# RIOK2, Q9BVS4 = target: RIOK2, Q9BVS4
# Procedure: as §1
# SNX9, Q9Y5X1 = target: SNX9, Q9Y5X1
# Procedure: as §1
# SUPT6H, Q7KZ85 = target: SUPT6H, Q7KZ85
# Procedure: as §1
# TBL2, Q9Y4P3 = target: TBL2, Q9Y4P3
# Procedure: as §1
# TCAF1, Q9Y4C2 = target: TCAF1, Q9Y4C2
# Procedure: as §1
# TEX264, Q9Y6I9 = target: TEX264, Q9Y6I9
# Procedure: as §1
# UTP14A, Q9BVJ6 = target: UTP14A, Q9BVJ6
# Procedure: as §1
binder,measurement,setting,value
LIHLGWYRIKSSPVF [MKKS],PRISMA enrichment of interactor (log2),"AHCTF1, Q8WYP5",5.72
same,PRISMA enrichment of interactor (log2),"AK2, P54819",5.83
same,PRISMA enrichment of interactor (log2),"COPS4, Q9BT78",4.65
same,PRISMA enrichment of interactor (log2),"CPNE3, O75131",6.87
same,PRISMA enrichment of interactor (log2),"DCAF13, Q9NV06",5.1
same,PRISMA enrichment of interactor (log2),"DERPC, P0CG12",4.34
same,PRISMA enrichment of interactor (log2),"EIF3D, O15371",5.39
same,PRISMA enrichment of interactor (log2),"MT-ATP6, P00846",4.67
same,PRISMA enrichment of interactor (log2),"NUP54, Q7Z3B4",4.77
same,PRISMA enrichment of interactor (log2),"POP1, Q99575",5.95
same,PRISMA enrichment of interactor (log2),"PSRC1, Q6PGN9",8.07
same,PRISMA enrichment of interactor (log2),"PTPN1, P18031",4.71
same,PRISMA enrichment of interactor (log2),"SETD7, Q8WTS6",5.45
same,PRISMA enrichment of interactor (log2),"TUBB2A, Q13885",6.89
AHGTRARRATAASPS [THAP7],PRISMA enrichment of interactor (log2),"AHCTF1, Q8WYP5",4.59
same,PRISMA enrichment of interactor (log2),"ANP32B, Q92688",5.9
same,PRISMA enrichment of interactor (log2),"C1QBP, Q07021",6.57
same,PRISMA enrichment of interactor (log2),"CDCA7L, Q96GN5",5.45
same,PRISMA enrichment of interactor (log2),"FABP5, Q01469",5.6
same,PRISMA enrichment of interactor (log2),"GART, P22102",4.89
same,PRISMA enrichment of interactor (log2),"GPS1, Q13098",4.14
same,PRISMA enrichment of interactor (log2),"NUDC, Q9Y266",6.23
same,PRISMA enrichment of interactor (log2),"PCYT1A, P49585",4.06
same,PRISMA enrichment of interactor (log2),"RBM15, Q96T37",5.15
same,PRISMA enrichment of interactor (log2),"RBM22, Q9NW64",7.88
same,PRISMA enrichment of interactor (log2),"RNF213, Q63HN8",11.6
same,PRISMA enrichment of interactor (log2),"RPLP1, P05386",6.29
same,PRISMA enrichment of interactor (log2),"SET, Q01105",5.43
same,PRISMA enrichment of interactor (log2),"SLC35B2, Q8TB61",4.41
EECKQSAKNKPVGCT [PEX2],PRISMA enrichment of interactor (log2),"AHCTF1, Q8WYP5",4.87
same,PRISMA enrichment of interactor (log2),"ATG3, Q9NT62",6.06
same,PRISMA enrichment of interactor (log2),"CDC37, Q16543",7.14
same,PRISMA enrichment of interactor (log2),"FAM3C, Q92520",4.82
same,PRISMA enrichment of interactor (log2),"FOXK1, P85037",4.15
same,PRISMA enrichment of interactor (log2),"MPG, P29372",6.27
same,PRISMA enrichment of interactor (log2),"PCYT1A, P49585",5.37
same,PRISMA enrichment of interactor (log2),"RIOK2, Q9BVS4",6.65
same,PRISMA enrichment of interactor (log2),"SNX9, Q9Y5X1",4.55
same,PRISMA enrichment of interactor (log2),"SUPT6H, Q7KZ85",6.68
same,PRISMA enrichment of interactor (log2),"TBL2, Q9Y4P3",5.91
same,PRISMA enrichment of interactor (log2),"TCAF1, Q9Y4C2",4.21
same,PRISMA enrichment of interactor (log2),"TEX264, Q9Y6I9",4.18
same,PRISMA enrichment of interactor (log2),"UTP14A, Q9BVJ6",7.04

# Some of the entries so far, with bars between the fields:
binder | measurement | setting | value
LIHLGWYRIKSSPVF [MKKS] | PRISMA enrichment of interactor (log2) | AHCTF1, Q8WYP5 | 5.72
same | PRISMA enrichment of interactor (log2) | AK2, P54819 | 5.83
